Laboratory results taken from patent US20110165063A1 (published 2011).
These are yes or no findings as the source states them, for the method shown. Some binding calls cover weakened binding; strength is not graded here.

Target: T1, recombinant human IL-1α (human, UniProt P01583 113-271)
T1 sequence: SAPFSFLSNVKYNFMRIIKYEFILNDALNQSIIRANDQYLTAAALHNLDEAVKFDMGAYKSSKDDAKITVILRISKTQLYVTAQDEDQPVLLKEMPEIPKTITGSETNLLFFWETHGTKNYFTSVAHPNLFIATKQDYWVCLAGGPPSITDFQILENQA
Assay: ELISA screen of hybridoma supernatants

binding: binds
B1: murine anti-human IL-1α monoclonal antibody 3D12 (antibody, V domains shown)
VH: QIQLVQSGPELKKPGETVKISCKASGYTFRNYGMNWVKQAPGKDLKRMAWINTYTGESTYADDFKGRFAFSLETSASTAYLQINNLKNEDTATYFCARGIYYYGSSYAMDYWGQGTSVTVSS
VL: IQMTQTTSSLSASLGDRVTISCRASQDISNCLNWYQQKPDGTVKLLIYYTSRLHSGVPSRFSGSGSGTDYSLTISNLEQEDIATYFCQQGKTLPYAFGGGTKLEINR
